The record followed here is PubChem BioAssay.

The nature of test [1]: PubChem AID 1586. Conditions: yeast two-hybrid polyglutamine protein interaction, reporter readout; measured here: averaged growth delta OD.
Test [2] is described as follows: enhancers of SMN2 over SMN1 splicing, cell-based, SMN2/SMN1 luciferase reporters (AID 1598). The settings on record: SMN2 vs SMN1 luciferase splicing reporter cells, at 10 µM; SMN1 luciferase ratio: measured here: SMN1 luciferase reporter average; SMN2 luciferase ratio: measured here: SMN2 luciferase reporter average, stronger effect = higher value. A general note: In a reporter assay the amount or activity of a reporter protein is the signal.

A short description of test [3]: protection against mutant huntingtin cytotoxicity, PC12 cells, LDH release (AID 1610). Conditions: PC12 mutant huntingtin toxicity, final LDH at 4 uM, stronger effect = lower value. A general note: LDH leaks from cells whose membrane has failed.

The list shows a part of the results. Shown are side measurements of this screen, not its main read-out; they come without a call. For some assays here: Most of these compounds were active or inconclusive in the main read-out, so they are no random draw.

In turn, `CCOC(=O)C1C(OC(=O)c2ccccc2)CC2CCC1N2C` (centres undefined) came in with a signal change (36 h minus 0 h) in test [1] of 0.378. In test [2], the SMN1 luciferase ratio was determined as 1 and the SMN2 luciferase ratio amounted to 0.94. This compound also registered a normalised LDH release in test [3] of 0.816.

On to `O=c1oc2ccccc2c(O)c1Cc1c(O)c2ccccc2oc1=O`, for which the signal change (36 h minus 0 h) in test [1] stood at 0.124. In test [2], the SMN1 luciferase ratio was found to be 0.97 and the SMN2 luciferase ratio is 1.05. Further, the normalised LDH release in test [3] was determined as 1.16.

The compound `O=C1CN=C(c2ccccc2)c2cc(Cl)ccc2N1` had a signal change (36 h minus 0 h) in test [1] of 0.226. In test [2], the SMN1 luciferase ratio turned out to be 0.9 and the SMN2 luciferase ratio came to 0.96. Besides, in test [3], the normalised LDH release came out at 0.967.

As for `CCC(C)C(=O)O[C@H]1[C@H](O)C2C(CN3CC(C)CCC3[C@@]2(C)O)C2C[C@]34O[C@]5(O)C(OC(=O)C(C)(O)CC)CC[C@@]3(C)C5C(OC(C)=O)[C@@H](OC(C)=O)C4[C@@]21O` (some centres undefined), the signal change (36 h minus 0 h) in test [1] came to 0.109. Further, in test [2], the SMN1 luciferase ratio is 0.83 and the SMN2 luciferase ratio was found to be 0.86. In test [3], this compound registered a normalised LDH release of 0.874.

With `c1ccc(N=Nc2ccccc2)cc1`, the signal change (36 h minus 0 h) in test [1] was found to be 0.0923. For the same compound, in test [2], the SMN1 luciferase ratio is 0.9 and the SMN2 luciferase ratio was determined as 0.9. This compound returned a normalised LDH release in test [3] of 1.19.

As to `COc1ccc(Cc2nccc3cc(OC)c(OC)cc23)cc1OC`, in test [1], the signal change (36 h minus 0 h) was 0.186. In test [2], the SMN1 luciferase ratio stood at 0.82 and the SMN2 luciferase ratio is 0.52. The compound also came in with a normalised LDH release in test [3] of 0.84.

In turn, `Oc1ccc2c3c1OC1[C@@H](O)CC[C@@]4(O)[C@@H](C2)N(CC2CCC2)CC[C@]314` (some centres undefined) yielded a signal change (36 h minus 0 h) in test [1] of 0.0847. Besides, in test [2], the SMN1 luciferase ratio came to 0.89 and the SMN2 luciferase ratio was determined as 0.86. In test [3], this compound returned a normalised LDH release of 0.899.

In test [1], `C=CCC1(C(C)CCC)C(=O)N=C(S)NC1=O` (centres undefined) registered a signal change (36 h minus 0 h) of 0.281. In test [2], the SMN1 luciferase ratio was 0.86 and the SMN2 luciferase ratio came out at 1.01. The same compound had a normalised LDH release in test [3] of 0.516.

Consider `O=C1CCO1`, for which the signal change (36 h minus 0 h) in test [1] stood at 0.422. Besides, in test [2], the SMN1 luciferase ratio was determined as 0.89 and the SMN2 luciferase ratio worked out at 0.93. The compound also had a normalised LDH release in test [3] of 0.976.

In test [1], `CC(=O)[O][Hg][c]1ccccc1` registered a signal change (36 h minus 0 h) of 0.00475. In addition, in test [2], the SMN1 luciferase ratio stood at 0.08 and the SMN2 luciferase ratio turned out to be 0.5. Also, the normalised LDH release in test [3] amounted to 0.972.

In turn, `N#C/C(=C\c1cccc(O)c1)C(=O)O` came in with a signal change (36 h minus 0 h) in test [1] of 0.107. Also, in test [2], the SMN1 luciferase ratio worked out at 0.81 and the SMN2 luciferase ratio worked out at 0.98. The compound also gave a normalised LDH release in test [3] of 0.838.
